# In PMC10936181:
# These are yes or no findings as the source states them, for the method shown.
# T1: Helicobacter pylori adhesin A, HpaA_(26-233) (H. pylori 26695 strain), P55969
# T1 chain: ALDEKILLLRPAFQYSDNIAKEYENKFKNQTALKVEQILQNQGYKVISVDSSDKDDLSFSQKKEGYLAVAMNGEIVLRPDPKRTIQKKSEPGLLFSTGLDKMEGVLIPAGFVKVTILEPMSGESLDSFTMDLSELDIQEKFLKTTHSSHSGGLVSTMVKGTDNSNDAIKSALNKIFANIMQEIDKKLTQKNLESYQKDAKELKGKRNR
# B1: Helicobacter pylori adhesin A, HpaA_(26-233), P55969 53-260 (domain or fragment)
# chain: ALDEKILLLRPAFQYSDNIAKEYENKFKNQTALKVEQILQNQGYKVISVDSSDKDDLSFSQKKEGYLAVAMNGEIVLRPDPKRTIQKKSEPGLLFSTGLDKMEGVLIPAGFVKVTILEPMSGESLDSFTMDLSELDIQEKFLKTTHSSHSGGLVSTMVKGTDNSNDAIKSALNKIFANIMQEIDKKLTQKNLESYQKDAKELKGKRNR
# Assays:
# [1] = molecular target: T1, Helicobacter pylori adhesin A, …; experiment: SEC-MALS; 25°C; Acquity UPLC Protein BEH SEC 200Å column; phosphate buffer (137 mM NaCl, 2.7 mM KCl, 8 mM Na2HPO4, 2 mM KH2PO4, pH 7.5); both purified; conditions: remark: other sources report otherwise
# [2] = molecular target: T1, Helicobacter pylori adhesin A, …; experiment: crystal structure; sitting drop, 20°C, 0.1 M sodium acetate pH 4.5, 23% PEG 3350, 6% glycerol; space group P2_(1), four HpaA molecules in the asymmetric unit; 2.9 Å; both purified; conditions: remark: other sources report otherwise
binder,measurement,setting,value
B1,binding,[1],no binding
same,binding,[2],no binding
